According to the supplement of paper PMC6411743:
± gives the standard deviation of the averaged measurements. The list shows a part of the results, in another mix than the full data. Small differences around the control level are noise.

Chains of the proteins cited; added tags and fusions are not shown. Lines headed by an entry give the natural chain unless they say otherwise; changes in a name come on top.
UniProt Q9HCM1: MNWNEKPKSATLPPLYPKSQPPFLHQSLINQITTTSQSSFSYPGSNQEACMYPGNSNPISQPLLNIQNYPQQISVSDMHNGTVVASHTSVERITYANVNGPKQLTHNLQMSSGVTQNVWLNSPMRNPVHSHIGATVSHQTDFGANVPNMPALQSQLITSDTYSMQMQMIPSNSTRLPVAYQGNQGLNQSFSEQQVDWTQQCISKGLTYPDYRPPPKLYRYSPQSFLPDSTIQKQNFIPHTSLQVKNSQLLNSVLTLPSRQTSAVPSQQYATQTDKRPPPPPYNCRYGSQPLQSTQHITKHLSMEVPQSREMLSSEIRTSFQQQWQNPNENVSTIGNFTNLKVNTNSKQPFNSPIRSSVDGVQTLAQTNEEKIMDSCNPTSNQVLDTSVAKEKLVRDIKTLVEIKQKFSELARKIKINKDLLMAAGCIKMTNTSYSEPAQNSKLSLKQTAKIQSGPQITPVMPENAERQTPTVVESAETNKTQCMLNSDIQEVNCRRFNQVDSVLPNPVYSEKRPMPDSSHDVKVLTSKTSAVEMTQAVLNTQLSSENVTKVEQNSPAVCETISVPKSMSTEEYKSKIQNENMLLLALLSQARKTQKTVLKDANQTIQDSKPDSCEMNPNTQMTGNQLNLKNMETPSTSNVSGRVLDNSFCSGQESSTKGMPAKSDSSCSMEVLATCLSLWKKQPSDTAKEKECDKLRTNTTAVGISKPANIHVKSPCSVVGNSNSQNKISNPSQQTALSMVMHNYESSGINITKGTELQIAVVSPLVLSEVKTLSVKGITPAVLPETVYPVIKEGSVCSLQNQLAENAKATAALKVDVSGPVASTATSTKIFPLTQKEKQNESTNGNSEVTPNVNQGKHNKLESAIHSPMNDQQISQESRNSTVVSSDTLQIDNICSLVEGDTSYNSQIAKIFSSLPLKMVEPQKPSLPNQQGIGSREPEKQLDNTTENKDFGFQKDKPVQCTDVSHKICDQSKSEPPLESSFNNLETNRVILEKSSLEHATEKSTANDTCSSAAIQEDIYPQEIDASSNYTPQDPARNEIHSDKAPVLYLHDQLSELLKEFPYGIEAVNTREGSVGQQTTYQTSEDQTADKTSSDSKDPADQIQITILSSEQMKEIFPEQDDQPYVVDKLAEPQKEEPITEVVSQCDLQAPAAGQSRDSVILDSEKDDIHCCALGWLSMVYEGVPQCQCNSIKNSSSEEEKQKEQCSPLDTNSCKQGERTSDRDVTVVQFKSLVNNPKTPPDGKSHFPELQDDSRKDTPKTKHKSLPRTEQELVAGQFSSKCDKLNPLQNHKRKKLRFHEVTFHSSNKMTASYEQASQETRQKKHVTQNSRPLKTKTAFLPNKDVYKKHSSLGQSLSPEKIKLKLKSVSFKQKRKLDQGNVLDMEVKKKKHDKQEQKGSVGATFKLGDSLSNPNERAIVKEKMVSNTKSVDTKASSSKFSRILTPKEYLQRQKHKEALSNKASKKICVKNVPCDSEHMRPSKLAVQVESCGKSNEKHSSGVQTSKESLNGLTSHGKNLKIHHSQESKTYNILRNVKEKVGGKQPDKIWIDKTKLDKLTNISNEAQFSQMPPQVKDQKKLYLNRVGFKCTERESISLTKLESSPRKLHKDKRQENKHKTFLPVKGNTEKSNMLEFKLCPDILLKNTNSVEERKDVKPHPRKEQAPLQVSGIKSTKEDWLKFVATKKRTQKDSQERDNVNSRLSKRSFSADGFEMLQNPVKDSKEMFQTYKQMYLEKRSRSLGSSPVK
UniProt Q9H477: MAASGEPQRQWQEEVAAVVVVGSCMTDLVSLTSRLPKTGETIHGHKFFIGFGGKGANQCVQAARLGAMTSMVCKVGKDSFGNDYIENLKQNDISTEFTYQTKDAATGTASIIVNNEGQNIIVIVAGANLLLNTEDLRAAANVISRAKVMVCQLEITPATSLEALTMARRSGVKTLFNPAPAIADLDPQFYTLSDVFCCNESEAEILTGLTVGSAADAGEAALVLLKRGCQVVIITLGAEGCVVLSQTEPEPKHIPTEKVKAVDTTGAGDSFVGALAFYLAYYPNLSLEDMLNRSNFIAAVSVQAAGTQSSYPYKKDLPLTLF
UniProt Q9GZR2: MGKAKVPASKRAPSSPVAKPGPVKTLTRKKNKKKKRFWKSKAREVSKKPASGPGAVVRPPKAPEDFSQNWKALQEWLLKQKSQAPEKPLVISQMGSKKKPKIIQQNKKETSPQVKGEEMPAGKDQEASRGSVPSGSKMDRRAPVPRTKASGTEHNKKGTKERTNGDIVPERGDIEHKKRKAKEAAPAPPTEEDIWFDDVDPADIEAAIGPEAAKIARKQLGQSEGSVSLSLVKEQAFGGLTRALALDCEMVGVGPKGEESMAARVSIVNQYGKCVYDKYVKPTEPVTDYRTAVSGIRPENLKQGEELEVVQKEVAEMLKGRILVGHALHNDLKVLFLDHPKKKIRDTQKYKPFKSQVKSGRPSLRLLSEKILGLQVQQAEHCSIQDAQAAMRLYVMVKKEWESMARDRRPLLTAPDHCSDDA
UniProt Q9H4G4: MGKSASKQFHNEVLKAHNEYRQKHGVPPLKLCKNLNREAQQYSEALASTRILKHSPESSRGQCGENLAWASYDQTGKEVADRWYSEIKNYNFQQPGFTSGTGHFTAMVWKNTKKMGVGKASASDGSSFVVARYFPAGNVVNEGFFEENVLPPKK
UniProt Q9H0R6: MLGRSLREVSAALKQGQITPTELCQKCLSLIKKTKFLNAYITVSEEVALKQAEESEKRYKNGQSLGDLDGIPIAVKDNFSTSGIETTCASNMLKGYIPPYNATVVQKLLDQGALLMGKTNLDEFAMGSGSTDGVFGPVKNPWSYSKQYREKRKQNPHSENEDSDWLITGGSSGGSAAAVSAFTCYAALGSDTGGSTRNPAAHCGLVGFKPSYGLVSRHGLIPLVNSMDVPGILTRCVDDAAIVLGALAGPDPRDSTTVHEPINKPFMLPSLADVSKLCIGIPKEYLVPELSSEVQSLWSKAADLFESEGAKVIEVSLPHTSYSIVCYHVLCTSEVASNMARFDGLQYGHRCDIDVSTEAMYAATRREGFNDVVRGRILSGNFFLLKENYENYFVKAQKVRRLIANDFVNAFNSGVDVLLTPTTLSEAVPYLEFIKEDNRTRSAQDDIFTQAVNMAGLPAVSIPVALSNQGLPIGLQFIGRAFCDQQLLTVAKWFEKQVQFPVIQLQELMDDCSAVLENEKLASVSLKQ
UniProt Q9HAB8: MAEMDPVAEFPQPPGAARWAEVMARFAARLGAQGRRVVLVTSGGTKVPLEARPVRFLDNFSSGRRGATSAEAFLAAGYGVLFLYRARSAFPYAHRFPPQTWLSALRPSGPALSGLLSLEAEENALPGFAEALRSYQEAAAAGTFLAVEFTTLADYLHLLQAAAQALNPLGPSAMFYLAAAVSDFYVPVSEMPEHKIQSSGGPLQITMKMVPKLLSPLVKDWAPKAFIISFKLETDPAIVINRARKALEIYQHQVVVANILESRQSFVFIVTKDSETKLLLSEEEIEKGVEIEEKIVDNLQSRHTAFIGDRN
UniProt Q9H6D7: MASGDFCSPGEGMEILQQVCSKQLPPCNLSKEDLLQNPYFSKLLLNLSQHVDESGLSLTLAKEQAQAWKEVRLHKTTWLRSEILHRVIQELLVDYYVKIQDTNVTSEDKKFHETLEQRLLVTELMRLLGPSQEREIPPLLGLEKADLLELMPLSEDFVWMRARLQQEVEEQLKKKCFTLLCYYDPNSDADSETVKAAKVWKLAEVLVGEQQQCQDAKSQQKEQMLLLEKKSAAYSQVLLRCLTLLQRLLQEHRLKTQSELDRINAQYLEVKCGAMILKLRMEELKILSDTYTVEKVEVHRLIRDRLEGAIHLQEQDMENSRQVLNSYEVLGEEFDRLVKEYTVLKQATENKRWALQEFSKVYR
UniProt Q9C0D5: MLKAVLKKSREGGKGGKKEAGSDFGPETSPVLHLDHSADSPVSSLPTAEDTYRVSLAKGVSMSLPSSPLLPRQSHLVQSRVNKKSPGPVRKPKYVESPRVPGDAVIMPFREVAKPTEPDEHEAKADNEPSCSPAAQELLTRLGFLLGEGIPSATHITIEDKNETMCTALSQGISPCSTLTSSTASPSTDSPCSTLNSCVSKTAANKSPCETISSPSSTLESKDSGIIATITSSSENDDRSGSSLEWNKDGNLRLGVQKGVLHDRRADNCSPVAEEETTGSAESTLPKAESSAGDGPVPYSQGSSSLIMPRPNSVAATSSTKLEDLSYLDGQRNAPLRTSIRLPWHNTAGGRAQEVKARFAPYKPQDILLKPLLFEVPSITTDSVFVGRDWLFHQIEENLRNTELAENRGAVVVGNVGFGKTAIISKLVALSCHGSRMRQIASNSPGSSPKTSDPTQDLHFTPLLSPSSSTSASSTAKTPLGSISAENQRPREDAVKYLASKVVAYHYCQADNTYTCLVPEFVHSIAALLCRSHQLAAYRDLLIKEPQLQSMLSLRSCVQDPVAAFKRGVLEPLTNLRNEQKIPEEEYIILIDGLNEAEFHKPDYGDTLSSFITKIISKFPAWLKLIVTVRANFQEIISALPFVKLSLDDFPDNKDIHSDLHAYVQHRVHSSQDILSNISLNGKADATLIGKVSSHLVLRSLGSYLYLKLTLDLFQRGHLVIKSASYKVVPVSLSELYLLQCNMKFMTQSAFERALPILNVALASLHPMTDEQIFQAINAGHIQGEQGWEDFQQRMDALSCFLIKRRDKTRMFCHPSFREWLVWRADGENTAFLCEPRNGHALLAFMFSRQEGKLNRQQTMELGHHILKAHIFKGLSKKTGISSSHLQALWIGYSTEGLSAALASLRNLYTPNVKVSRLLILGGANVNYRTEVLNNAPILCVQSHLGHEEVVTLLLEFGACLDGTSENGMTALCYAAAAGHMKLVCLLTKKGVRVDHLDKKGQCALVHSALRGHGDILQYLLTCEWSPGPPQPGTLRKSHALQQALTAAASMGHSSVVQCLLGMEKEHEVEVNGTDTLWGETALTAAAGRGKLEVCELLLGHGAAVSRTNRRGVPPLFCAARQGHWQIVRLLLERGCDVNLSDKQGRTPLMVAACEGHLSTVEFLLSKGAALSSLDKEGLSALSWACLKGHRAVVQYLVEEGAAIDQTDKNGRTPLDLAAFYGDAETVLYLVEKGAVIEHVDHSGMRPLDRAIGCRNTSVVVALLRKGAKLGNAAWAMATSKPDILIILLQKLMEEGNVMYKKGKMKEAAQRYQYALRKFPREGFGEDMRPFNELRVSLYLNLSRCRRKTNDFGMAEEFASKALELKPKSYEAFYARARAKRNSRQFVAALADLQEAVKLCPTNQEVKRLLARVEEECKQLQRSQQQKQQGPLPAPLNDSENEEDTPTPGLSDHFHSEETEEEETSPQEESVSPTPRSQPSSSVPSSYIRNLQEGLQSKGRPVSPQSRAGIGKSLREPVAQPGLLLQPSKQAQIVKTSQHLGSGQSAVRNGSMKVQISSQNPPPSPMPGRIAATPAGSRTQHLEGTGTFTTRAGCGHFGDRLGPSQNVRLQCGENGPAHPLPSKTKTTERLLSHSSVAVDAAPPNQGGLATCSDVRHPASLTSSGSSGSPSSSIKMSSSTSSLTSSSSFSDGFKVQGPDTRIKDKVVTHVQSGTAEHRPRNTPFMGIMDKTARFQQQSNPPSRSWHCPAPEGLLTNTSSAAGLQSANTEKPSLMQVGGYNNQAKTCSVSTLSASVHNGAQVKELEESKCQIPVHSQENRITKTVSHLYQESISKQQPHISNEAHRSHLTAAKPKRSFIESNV
UniProt Q9H0U4: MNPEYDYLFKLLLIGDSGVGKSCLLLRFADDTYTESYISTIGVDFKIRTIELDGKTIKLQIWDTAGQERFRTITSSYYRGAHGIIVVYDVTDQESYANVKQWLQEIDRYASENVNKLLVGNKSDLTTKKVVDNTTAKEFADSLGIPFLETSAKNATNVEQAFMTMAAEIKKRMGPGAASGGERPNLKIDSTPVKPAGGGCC
UniProt Q9H6Y2: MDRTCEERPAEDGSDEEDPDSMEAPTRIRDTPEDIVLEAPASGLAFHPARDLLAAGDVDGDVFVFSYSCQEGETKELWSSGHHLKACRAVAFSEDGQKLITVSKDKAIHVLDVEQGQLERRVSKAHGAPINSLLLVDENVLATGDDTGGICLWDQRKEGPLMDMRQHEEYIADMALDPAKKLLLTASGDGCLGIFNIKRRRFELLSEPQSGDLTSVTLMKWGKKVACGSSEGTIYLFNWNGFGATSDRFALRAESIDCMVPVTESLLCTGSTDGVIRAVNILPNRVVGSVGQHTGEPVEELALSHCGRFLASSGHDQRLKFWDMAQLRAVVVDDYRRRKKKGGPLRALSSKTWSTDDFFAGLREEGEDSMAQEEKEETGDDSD
UniProt Q9NP77: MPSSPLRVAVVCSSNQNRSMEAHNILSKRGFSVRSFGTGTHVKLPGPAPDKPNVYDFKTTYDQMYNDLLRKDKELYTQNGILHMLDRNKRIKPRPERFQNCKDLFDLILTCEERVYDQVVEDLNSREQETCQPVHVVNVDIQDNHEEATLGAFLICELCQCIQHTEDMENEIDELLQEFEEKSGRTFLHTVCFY

Compound: Nc1ncnc2c1ncn2[C@@H]1O[C@H](COP(=O)(O)OP(=O)(O)OP(=O)(O)O)[C@@H](O)[C@H]1O [adenosine triphosphate]
Assay: NP40-soluble protein abundance relative to vehicle (solubility fold change) (ratio); higher = more soluble protein in presence of ATP
Conditions: concentration: 0.1mM
Summary of the method: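 Jurkat crude lysate (Dounce-homogenised) was treated with eight concentrations from 0.1 to 10 mM for 10 min at room temperature, then 3 min at 37 °C. It was solubilised with 0.8% NP40 and benzonase (60 min, 4 °C) and ultracentrifuged, and the supernatant was TMT-labelled for LC-MS/MS. Intensities were vsn-normalised, and the value is the fold change against the NP40-processed vehicle per replicate, from three independent experiments.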

Target	NP40-soluble protein abundance
UniProt Q9HCM1	0.98 ± 0.1
ADNP (UniProt Q9H2P0)	0.991 ± 0.036
UniProt Q9H7C9	0.933 ± 0.05
UniProt Q9HBE1 and related entries	1.02 ± 0.027
CDT1 (UniProt Q9H211)	1.01 ± 0.022
UniProt Q9H477 and related entries	1.1 ± 0.056
REXO4 (UniProt Q9GZR2)	1.01 ± 0.05
TMEM168 (UniProt Q9H0V1)	1.13 ± 0.03
GLIPR2 (UniProt Q9H4G4)	1.01 ± 0.045
SHARPIN (UniProt Q9H0F6)	0.99 ± 0.028
QRSL1 (UniProt Q9H0R6)	1.02 ± 0.042
PELI2 (UniProt Q9HAT8)	1.06 ± 0.039
PPCS (UniProt Q9HAB8)	1.03 ± 0.039
UniProt Q9H8P0 and related entries	1.05 ± 0.07
UniProt Q9H7B2	1.16 ± 0.094
UniProt Q9H6D7 and related entries	0.994 ± 0.12
UniProt Q9C0D5 and related entries	0.996 ± 0.051
PARVG (UniProt Q9HBI0)	0.998 ± 0.1
UniProt Q9H9T3 and related entries	1.04 ± 0.061

Target	NP40-soluble protein abundance
ISCU (UniProt Q9H1K1)	0.959 ± 0.0098
RAB1B (UniProt Q9H0U4)	0.976 ± 0.021
UniProt Q9H0V9 and related entries	1.08 ± 0.11
CARS2 (UniProt Q9HA77)	1 ± 0.026
WDR33 (UniProt Q9C0J8)	1.01 ± 0.013
UniProt Q9HBL7	1.03 ± 0.076
PLEKHF2 (UniProt Q9H8W4)	1.03 ± 0.057
UniProt Q9H165 and related entries	1.05 ± 0.19
SPRTN (UniProt Q9H040)	0.97 ± 0.11
WDR55 (UniProt Q9H6Y2)	1.1 ± 0.022
MRPS30 (UniProt Q9NP92)	0.934 ± 0.096
AZI2 (UniProt Q9H6S1)	0.973 ± 0.09
SSU72 (UniProt Q9NP77)	1.06 ± 0.033
UniProt Q9H5V9 and related entries	0.978 ± 0.013
UniProt Q9H832 and related entries	1.01 ± 0.021
DNTTIP1 (UniProt Q9H147)	1.016 ± 0.0067
UniProt Q9H8E8 and related entries	0.988 ± 0.16
UniProt Q9H6U6 and related entries	1.02 ± 0.059

Same assay, conditions: concentration: 0.5mM

Target	NP40-soluble protein abundance
UniProt Q9HCM1	1 ± 0.16
ADNP (UniProt Q9H2P0)	1.03 ± 0.043
UniProt Q9H7C9	0.905 ± 0.098
UniProt Q9HBE1 and related entries	1.05 ± 0.13
CDT1 (UniProt Q9H211)	1 ± 0.088
UniProt Q9H477 and related entries	1.04 ± 0.058
REXO4 (UniProt Q9GZR2)	1.022 ± 0.0097
TMEM168 (UniProt Q9H0V1)	1.15 ± 0.053
GLIPR2 (UniProt Q9H4G4)	1.01 ± 0.026
SHARPIN (UniProt Q9H0F6)	0.931 ± 0.042
QRSL1 (UniProt Q9H0R6)	1.04 ± 0.063
PELI2 (UniProt Q9HAT8)	1.01 ± 0.055
PPCS (UniProt Q9HAB8)	0.987 ± 0.02
UniProt Q9H8P0 and related entries	0.956 ± 0.06
UniProt Q9H7B2	1.18 ± 0.14
UniProt Q9H6D7 and related entries	0.986 ± 0.082
UniProt Q9C0D5 and related entries	0.994 ± 0.056
PARVG (UniProt Q9HBI0)	1.03 ± 0.053
UniProt Q9H9T3 and related entries	1.05 ± 0.018

Target	NP40-soluble protein abundance
ISCU (UniProt Q9H1K1)	0.944 ± 0.02
RAB1B (UniProt Q9H0U4)	1.01 ± 0.019
UniProt Q9H0V9 and related entries	1.03 ± 0.14
CARS2 (UniProt Q9HA77)	0.972 ± 0.028
WDR33 (UniProt Q9C0J8)	1.15 ± 0.027
UniProt Q9HBL7	0.979 ± 0.032
PLEKHF2 (UniProt Q9H8W4)	1 ± 0.035
UniProt Q9H165 and related entries	0.993 ± 0.11
SPRTN (UniProt Q9H040)	0.94 ± 0.17
WDR55 (UniProt Q9H6Y2)	1.1 ± 0.14
MRPS30 (UniProt Q9NP92)	1.01 ± 0.1
AZI2 (UniProt Q9H6S1)	0.935 ± 0.14
SSU72 (UniProt Q9NP77)	1.03 ± 0.047
UniProt Q9H5V9 and related entries	0.984 ± 0.067
UniProt Q9H832 and related entries	0.969 ± 0.036
DNTTIP1 (UniProt Q9H147)	1.04 ± 0.031
UniProt Q9H8E8 and related entries	0.883 ± 0.13
UniProt Q9H6U6 and related entries	1.01 ± 0.12
